Results reported in the supplement of paper PMC10849652.
Some of the results follow.

Sequences of proteins named here, by UniProt entry; tags and fusion partners are left off. A change or cut given only in a name is not applied to a line headed by its entry.
UniProt Q9BQ61: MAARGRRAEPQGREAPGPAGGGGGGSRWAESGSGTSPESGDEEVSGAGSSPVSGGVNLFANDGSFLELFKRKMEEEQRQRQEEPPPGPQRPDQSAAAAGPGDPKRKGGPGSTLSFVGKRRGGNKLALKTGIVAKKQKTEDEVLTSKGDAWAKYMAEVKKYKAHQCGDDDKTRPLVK
UniProt Q9NXH8: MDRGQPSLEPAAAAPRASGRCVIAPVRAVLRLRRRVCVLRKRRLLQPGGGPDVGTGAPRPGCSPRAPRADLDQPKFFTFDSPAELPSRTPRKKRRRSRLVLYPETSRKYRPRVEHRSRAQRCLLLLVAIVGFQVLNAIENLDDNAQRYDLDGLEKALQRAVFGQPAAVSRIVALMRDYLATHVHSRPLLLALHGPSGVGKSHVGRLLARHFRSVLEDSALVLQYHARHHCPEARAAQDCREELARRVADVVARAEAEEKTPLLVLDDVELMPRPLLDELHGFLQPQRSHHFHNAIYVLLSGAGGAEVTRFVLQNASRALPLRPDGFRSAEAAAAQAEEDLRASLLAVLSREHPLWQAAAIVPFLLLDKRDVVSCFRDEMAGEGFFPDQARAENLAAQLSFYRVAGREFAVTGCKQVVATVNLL
UniProt Q8WW01: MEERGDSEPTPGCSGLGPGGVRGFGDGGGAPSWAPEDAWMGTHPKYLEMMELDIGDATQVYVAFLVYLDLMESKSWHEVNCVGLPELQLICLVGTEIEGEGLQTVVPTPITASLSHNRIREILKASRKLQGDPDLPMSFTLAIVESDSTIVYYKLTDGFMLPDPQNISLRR
UniProt O94826, whole entry, looked up: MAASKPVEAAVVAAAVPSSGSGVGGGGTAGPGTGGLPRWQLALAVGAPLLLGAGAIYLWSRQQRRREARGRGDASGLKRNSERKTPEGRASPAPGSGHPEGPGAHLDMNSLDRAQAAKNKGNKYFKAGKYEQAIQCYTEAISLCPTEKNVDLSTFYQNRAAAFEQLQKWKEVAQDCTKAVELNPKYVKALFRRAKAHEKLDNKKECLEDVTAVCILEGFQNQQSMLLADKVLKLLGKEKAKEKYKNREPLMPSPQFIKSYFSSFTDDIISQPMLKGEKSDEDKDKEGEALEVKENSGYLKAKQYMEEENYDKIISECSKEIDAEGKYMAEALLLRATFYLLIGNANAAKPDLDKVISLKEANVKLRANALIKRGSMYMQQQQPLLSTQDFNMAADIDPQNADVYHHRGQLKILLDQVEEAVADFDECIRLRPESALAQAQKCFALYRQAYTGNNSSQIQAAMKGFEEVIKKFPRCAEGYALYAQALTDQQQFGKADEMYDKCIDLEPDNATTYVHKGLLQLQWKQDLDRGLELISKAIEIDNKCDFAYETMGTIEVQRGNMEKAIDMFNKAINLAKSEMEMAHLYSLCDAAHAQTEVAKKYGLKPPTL
UniProt O75648: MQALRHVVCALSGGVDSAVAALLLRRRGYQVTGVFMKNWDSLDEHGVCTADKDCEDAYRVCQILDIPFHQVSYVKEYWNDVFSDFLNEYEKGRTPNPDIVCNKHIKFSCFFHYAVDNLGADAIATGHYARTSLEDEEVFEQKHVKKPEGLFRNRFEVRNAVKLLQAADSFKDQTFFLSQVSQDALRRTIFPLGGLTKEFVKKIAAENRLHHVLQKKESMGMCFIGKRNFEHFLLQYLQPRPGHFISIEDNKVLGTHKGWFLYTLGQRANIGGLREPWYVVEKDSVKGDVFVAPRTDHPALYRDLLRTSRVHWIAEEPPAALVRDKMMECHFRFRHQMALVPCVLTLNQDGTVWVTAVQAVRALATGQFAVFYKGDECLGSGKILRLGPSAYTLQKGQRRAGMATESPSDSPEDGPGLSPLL
UniProt O43399: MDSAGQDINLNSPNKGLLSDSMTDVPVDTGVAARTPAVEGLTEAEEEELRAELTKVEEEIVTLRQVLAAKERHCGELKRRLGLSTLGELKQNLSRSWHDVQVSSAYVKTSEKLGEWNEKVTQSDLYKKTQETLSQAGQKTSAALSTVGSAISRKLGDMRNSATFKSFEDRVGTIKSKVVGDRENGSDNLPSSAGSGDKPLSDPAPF
UniProt O94842: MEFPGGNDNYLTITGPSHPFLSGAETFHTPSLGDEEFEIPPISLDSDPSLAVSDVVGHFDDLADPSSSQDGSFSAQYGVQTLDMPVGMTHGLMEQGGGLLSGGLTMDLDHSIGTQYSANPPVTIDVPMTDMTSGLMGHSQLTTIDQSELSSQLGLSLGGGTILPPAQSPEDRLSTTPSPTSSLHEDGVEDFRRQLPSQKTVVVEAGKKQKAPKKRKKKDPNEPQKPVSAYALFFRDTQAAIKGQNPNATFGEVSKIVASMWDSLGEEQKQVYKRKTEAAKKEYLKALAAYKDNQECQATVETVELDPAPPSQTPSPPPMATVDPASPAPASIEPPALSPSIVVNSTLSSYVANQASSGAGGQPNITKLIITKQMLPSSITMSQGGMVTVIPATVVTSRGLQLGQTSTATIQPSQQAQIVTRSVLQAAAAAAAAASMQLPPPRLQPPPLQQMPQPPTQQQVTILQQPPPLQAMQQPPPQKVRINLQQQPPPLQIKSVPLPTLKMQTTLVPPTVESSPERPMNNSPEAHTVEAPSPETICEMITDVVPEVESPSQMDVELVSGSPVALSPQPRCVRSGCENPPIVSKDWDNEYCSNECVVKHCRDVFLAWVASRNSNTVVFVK
UniProt Q9Y5S1: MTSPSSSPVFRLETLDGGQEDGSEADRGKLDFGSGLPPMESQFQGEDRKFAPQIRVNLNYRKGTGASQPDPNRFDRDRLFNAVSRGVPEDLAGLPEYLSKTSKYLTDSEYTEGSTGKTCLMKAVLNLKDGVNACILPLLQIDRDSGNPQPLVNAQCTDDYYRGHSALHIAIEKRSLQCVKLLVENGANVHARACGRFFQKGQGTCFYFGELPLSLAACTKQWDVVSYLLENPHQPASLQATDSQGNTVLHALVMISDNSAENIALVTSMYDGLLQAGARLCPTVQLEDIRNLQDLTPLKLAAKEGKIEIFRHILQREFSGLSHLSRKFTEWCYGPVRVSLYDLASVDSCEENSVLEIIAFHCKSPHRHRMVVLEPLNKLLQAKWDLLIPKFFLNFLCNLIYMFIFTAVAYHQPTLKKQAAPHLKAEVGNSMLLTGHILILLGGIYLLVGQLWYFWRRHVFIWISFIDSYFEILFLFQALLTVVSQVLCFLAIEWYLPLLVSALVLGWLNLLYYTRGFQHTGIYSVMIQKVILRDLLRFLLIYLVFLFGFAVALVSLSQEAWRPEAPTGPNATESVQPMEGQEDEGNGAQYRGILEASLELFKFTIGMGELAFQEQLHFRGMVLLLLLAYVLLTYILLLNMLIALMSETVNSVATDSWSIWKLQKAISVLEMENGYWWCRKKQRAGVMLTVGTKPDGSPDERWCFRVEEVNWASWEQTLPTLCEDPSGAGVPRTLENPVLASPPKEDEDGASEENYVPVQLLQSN
UniProt O95985: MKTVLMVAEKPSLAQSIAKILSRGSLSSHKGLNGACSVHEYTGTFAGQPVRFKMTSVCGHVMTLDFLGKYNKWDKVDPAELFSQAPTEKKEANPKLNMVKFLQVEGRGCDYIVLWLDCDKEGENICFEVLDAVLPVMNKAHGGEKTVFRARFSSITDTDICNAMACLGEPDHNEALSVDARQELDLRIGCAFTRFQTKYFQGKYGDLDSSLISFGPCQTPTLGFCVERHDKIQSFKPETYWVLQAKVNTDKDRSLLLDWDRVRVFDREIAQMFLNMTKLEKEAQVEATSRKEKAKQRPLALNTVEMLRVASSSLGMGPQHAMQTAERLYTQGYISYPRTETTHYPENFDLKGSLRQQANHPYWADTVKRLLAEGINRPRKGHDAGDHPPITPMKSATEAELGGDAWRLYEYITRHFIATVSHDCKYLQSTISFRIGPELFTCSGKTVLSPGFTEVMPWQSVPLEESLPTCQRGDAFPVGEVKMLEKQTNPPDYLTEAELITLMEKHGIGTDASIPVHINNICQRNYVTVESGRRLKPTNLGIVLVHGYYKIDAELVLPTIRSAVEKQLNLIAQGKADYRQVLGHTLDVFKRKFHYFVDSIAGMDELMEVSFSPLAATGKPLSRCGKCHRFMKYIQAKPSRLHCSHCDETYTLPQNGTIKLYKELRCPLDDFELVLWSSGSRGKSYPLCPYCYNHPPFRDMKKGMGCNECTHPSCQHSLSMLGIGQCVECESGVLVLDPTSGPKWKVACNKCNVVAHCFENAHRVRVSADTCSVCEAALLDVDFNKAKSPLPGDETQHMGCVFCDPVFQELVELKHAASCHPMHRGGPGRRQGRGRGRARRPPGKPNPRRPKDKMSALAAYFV
UniProt Q5JTV8: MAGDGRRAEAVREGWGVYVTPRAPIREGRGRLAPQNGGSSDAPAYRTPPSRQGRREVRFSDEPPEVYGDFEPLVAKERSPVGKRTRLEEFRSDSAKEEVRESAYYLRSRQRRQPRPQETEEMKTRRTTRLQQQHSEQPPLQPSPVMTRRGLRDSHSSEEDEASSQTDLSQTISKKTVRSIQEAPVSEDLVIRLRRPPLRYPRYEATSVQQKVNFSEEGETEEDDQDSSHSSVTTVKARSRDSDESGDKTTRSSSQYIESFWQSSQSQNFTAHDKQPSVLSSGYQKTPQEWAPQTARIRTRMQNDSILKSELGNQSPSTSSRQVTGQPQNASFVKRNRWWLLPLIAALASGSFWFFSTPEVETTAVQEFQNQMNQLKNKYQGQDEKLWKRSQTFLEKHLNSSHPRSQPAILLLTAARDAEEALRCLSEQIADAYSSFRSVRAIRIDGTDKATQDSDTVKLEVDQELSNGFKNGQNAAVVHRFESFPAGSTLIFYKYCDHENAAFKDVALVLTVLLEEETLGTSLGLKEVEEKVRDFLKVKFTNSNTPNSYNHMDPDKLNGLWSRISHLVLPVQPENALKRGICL
UniProt P67936, whole entry, looked up: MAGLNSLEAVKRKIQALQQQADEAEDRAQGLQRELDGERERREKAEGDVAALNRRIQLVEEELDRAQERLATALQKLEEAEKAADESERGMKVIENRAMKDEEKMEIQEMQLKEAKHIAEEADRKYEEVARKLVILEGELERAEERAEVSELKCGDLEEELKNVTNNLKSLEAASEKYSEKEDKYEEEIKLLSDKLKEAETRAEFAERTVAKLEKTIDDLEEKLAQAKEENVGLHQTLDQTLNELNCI
UniProt Q9NUP7: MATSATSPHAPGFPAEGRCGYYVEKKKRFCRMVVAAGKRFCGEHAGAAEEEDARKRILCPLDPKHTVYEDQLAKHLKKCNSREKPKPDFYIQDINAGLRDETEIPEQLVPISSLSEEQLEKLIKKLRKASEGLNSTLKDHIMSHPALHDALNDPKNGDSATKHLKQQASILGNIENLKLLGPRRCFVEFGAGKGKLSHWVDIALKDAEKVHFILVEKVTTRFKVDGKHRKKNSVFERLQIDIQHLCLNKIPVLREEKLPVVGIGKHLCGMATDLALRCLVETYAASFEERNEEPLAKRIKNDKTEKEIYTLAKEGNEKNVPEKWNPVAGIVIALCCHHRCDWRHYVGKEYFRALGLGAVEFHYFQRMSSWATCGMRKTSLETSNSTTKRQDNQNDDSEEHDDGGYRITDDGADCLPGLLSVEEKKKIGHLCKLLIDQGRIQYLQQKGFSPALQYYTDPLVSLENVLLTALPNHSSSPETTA

Tests used:
Assay in all cases: log2 fold change, soluble protein after heating vs DMSO (PISA); higher = thermal stabilisation; K562 cells, 10 uM, 30 min; active = over 0.2 and 3.5 SD of the protein, either way, in both replicates (recomputed)
[1] = compound: CS(=O)(=O)c1ccc(-c2cnc(N)c(C(=O)Nc3ccccc3)n2)cc1
Summary of the method: (§1)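 K562 cells at 2×10^6 cells/mL were treated with 10 μM compound for 30 min. Aliquots were heated for 3 min across 48°C-58°C, pooled, and extracted in PBS with 0.5% NP-40 at 4°C; soluble protein was the supernatant after 21,000xg for 90 min. Soluble protein was quantified by TMTpro 16plex LC-MS/MS with channel sums equalised, and reported as log2 fold change in thermal stability against DMSO controls, with values from duplicates.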

crizotinib = compound: C[C@@H](Oc1cc(-c2cnn(C3CCNCC3)c2)cnc1N)c1c(Cl)ccc(F)c1Cl [crizotinib]
Summary of the method: as §1

[2] = compound: C[C@@H]1COCCN1C2=NC(=NC(=C2)C3(CC3)S(=O)(=O)C)C4=C5C=CNC5=CC=C4
Summary of the method: as §1

[3] = compound: C[C@H](C1=CC=C(C=C1)C(=O)NC2=C3C=CNC3=NC=C2)N
Summary of the method: as §1

duvelisib = compound: C[C@H](Nc1ncnc2nc[nH]c12)c1cc2cccc(Cl)c2c(=O)n1-c1ccccc1 [duvelisib]
Summary of the method: as §1

gandotinib = compound: Cc1cc(Nc2cc(CN3CCOCC3)c3nc(C)c(Cc4ccc(Cl)cc4F)n3n2)n[nH]1 [gandotinib]
Summary of the method: as §1

tozasertib = compound: Cc1cc(Nc2cc(N3CCN(C)CC3)nc(Sc3ccc(NC(=O)C4CC4)cc3)n2)n[nH]1 [tozasertib]
Summary of the method: as §1

[4] = compound: Cc1cc(SCc2sc(-c3ccc(C(F)(F)F)cc3)nc2C)ccc1OCC(=O)O
Summary of the method: as §1

doramapimod = compound: Cc1ccc(-n2nc(C(C)(C)C)cc2NC(=O)Nc2ccc(OCCN3CCOCC3)c3ccccc23)cc1 [doramapimod]
Summary of the method: as §1

ispinesib = compound: Cc1ccc(C(=O)N(CCCN)[C@@H](c2nc3cc(Cl)ccc3c(=O)n2Cc2ccccc2)C(C)C)cc1 [ispinesib]
Summary of the method: as §1

bafetinib = compound: Cc1ccc(NC(=O)c2ccc(CN3CC[C@H](N(C)C)C3)c(C(F)(F)F)c2)cc1Nc1nccc(-c2cncnc2)n1 [bafetinib]
Summary of the method: as §1

[5] = compound: Cc1cccc(CC(=O)N2CCc3c2ccc(-c2cn(C)c4ncnc(N)c24)c3F)n1
Summary of the method: as §1

nilotinib = compound: Cc1cn(-c2cc(NC(=O)c3ccc(C)c(Nc4nccc(-c5cccnc5)n4)c3)cc(C(F)(F)F)c2)cn1 [nilotinib]
Summary of the method: as §1

[6] = compound: Cc1nc(Nc2n[nH]c3c2CN(C(=O)N[C@H](CN(C)C)c2ccccc2)C3(C)C)c2sccc2n1
Summary of the method: as §1

dasatinib = compound: Cc1nc(Nc2ncc(C(=O)Nc3c(C)cccc3Cl)s2)cc(N2CCN(CCO)CC2)n1 [dasatinib]
Summary of the method: as §1

[7] = compound: Cc1ncc(-c2ccnc(Nc3ccc(S(C)(=O)=O)cc3)n2)n1C(C)C
Summary of the method: as §1

[8] = compound: Cn1cc(-c2ccc3c(c2)CCN3C(=O)Cc2cccc(C(F)(F)F)c2)c2c(N)ncnc21
Summary of the method: as §1

[9] = compound: Cn1cc(-c2ccc3nnc(C(F)(F)c4ccc5ncccc5c4)n3n2)cn1
Summary of the method: as §1

tipifarnib = compound: Cn1cncc1[C@@](N)(c1ccc(Cl)cc1)c1ccc2c(c1)c(-c1cccc(Cl)c1)cc(=O)n2C [tipifarnib]
Summary of the method: as §1

mubritinib = compound: FC(F)(F)c1ccc(/C=C/c2nc(COc3ccc(CCCCn4ccnn4)cc3)co2)cc1 [mubritinib]
Summary of the method: as §1

Measured: log2 fold change

TPP2 (UniProt P29144)
inactive: [1] 0.083 | crizotinib -0.05 | [2] -0.399 | [3] 0.277 | duvelisib -0.207 | gandotinib 0.081 | tozasertib 0.007 | [4] 0.079 | doramapimod 0.157 | ispinesib -0.211 | bafetinib 0.242 | [5] 0.063 | nilotinib 0.08 | [6] 0.116 | dasatinib 0.041 | [7] -0.044 | [8] -0.288 | [9] -0.134 | tipifarnib 0.134 | mubritinib -0.276

TRIR (UniProt Q9BQ61)
inactive: [1] 0 | crizotinib -0.003 | [2] -0.037 | [3] -0.029 | duvelisib -0.014 | gandotinib 0.035 | tozasertib -0.001 | [4] 0 | doramapimod -0.009 | ispinesib -0.015 | bafetinib -0.066 | [5] -0.078 | nilotinib 0.03 | [6] 0 | dasatinib 0.102 | [7] -0.005 | [8] 0.013 | [9] 0.012 | tipifarnib 0.076 | mubritinib 0.058

TOR4A (UniProt Q9NXH8)
inactive: [1] 0.018 | crizotinib 0.133 | [2] -0.109 | [3] 0.131 | duvelisib 0 | gandotinib 0.113 | tozasertib 0.037 | [4] -0.034 | doramapimod 0.03 | ispinesib -0.053 | bafetinib 0.077 | [5] 0.02 | nilotinib 0.011 | [6] 0.143 | dasatinib 0.02 | [7] -0.01 | [8] -0.119 | [9] -0.03 | tipifarnib 0 | mubritinib -0.062

TSEN15 (UniProt Q8WW01)
inactive: [1] 0.1 | crizotinib 0.005 | [2] -0.009 | [3] -0.059 | duvelisib 0.072 | gandotinib 0.025 | tozasertib 0.023 | [4] 0.067 | doramapimod 0.097 | ispinesib -0.02 | bafetinib -0.002 | [5] 0.025 | nilotinib 0.036 | [6] -0.029 | dasatinib 0.05 | [7] -0.015 | [8] 0.136 | [9] 0.113 | tipifarnib 0.053 | mubritinib 0.012

TPM4, A0A2R8Y5V9
inactive: [1] 0.014 | crizotinib -0.004 | [2] -0.025 | [3] -0.086 | duvelisib 0.084 | gandotinib -0.049 | tozasertib -0.028 | [4] -0.055 | doramapimod 0.016 | ispinesib -0.051 | bafetinib -0.052 | [5] -0.017 | nilotinib 0.009 | [6] -0.005 | dasatinib 0.078 | [7] -0.024 | [8] -0.003 | [9] -0.042 | tipifarnib 0.018 | mubritinib 0.044

TNIK isoform 6 (UniProt Q9UKE5)
inactive: [1] -0.053 | crizotinib -0.034 | [2] -0.037 | [3] -0.034 | duvelisib -0.036 | gandotinib 0.011 | tozasertib -0.033 | [4] 0.009 | doramapimod 0.023 | ispinesib -0.048 | bafetinib -0.023 | [5] 0.006 | nilotinib -0.043 | [6] 0.033 | dasatinib -0.083 | [7] 0.093 | [8] 0.02 | [9] -0.051 | tipifarnib 0.019 | mubritinib 0.005

TOMM70 (UniProt O94826)
inactive: [1] -0.009 | crizotinib 0.019 | [2] 0.072 | [3] -0.012 | duvelisib 0.041 | gandotinib -0.042 | tozasertib -0.025 | [4] 0.053 | doramapimod -0.036 | ispinesib 0.04 | bafetinib 0.008 | [5] 0.029 | nilotinib -0.002 | [6] -0.027 | dasatinib -0.057 | [7] 0.026 | [8] 0.017 | [9] -0.011 | tipifarnib -0.038 | mubritinib 0.01

TRMU (UniProt O75648)
inactive: [1] 0.035 | crizotinib 0.122 | [2] 0.134 | [3] 0.005 | duvelisib 0.055 | gandotinib 0.002 | tozasertib 0.01 | [4] 0.024 | doramapimod -0.049 | ispinesib 0.018 | bafetinib -0.063 | [5] -0.011 | nilotinib 0.034 | [6] -0.002 | dasatinib -0.047 | [7] 0.052 | [8] 0.015 | [9] 0.032 | tipifarnib 0.05 | mubritinib -0.03

TPD52L2 isoform 7 (UniProt O43399)
inactive: [1] -0.003 | crizotinib 0.012 | [2] 0.02 | [3] -0.041 | duvelisib -0.008 | gandotinib 0.007 | tozasertib -0.03 | [4] -0.04 | doramapimod 0 | ispinesib 0.017 | bafetinib -0.075 | [5] -0.043 | nilotinib 0.012 | [6] 0.012 | dasatinib 0.065 | [7] -0.011 | [8] -0.004 | [9] -0.03 | tipifarnib 0.005 | mubritinib 0.037

TOX4 (UniProt O94842)
inactive: [1] -0.048 | crizotinib -0.007 | [2] -0.206 | [3] 0.242 | duvelisib -0.139 | gandotinib 0.178 | tozasertib -0.072 | [4] -0.052 | doramapimod 0.205 | ispinesib -0.121 | bafetinib 0.026 | [5] -0.118 | nilotinib -0.003 | [6] 0.039 | dasatinib 0.066 | [7] 0.013 | [8] -0.137 | [9] -0.117 | tipifarnib 0.17 | mubritinib -0.1

TRPV2 (UniProt Q9Y5S1)
inactive: [1] 0.01 | crizotinib 0.055 | [2] 0.071 | [3] -0.052 | duvelisib 0.05 | gandotinib -0.129 | tozasertib 0.011 | [4] 0.009 | doramapimod 0.025 | ispinesib 0.135 | bafetinib -0.178 | [5] 0.023 | nilotinib -0.039 | [6] -0.005 | dasatinib -0.022 | [7] 0.007 | [8] 0.025 | [9] 0.008 | tipifarnib -0.061 | mubritinib 0.003

TOP3B (UniProt O95985)
inactive: [1] -0.019 | crizotinib -0.04 | [2] -0.18 | [3] 0.193 | duvelisib -0.045 | gandotinib 0.024 | tozasertib -0.096 | [4] 0.074 | doramapimod 0.104 | ispinesib -0.113 | bafetinib 0.103 | [5] 0.051 | nilotinib -0.052 | [6] 0.073 | dasatinib -0.028 | [7] -0.026 | [8] -0.033 | [9] -0.112 | tipifarnib 0.065 | mubritinib -0.053

Taken from above (two entries):
TNIK isoform 6 (UniProt Q9UKE5)
inactive: [1] -0.053 | crizotinib -0.034 | [2] -0.037 | [3] -0.034 | duvelisib -0.036 | gandotinib 0.011 | tozasertib -0.033 | [4] 0.009 | doramapimod 0.023 | ispinesib -0.048 | bafetinib -0.023 | [5] 0.006 | nilotinib -0.043 | [6] 0.033 | dasatinib -0.083 | [7] 0.093 | [8] 0.02 | [9] -0.051 | tipifarnib 0.019 | mubritinib 0.005

TOMM70 (UniProt O94826)
inactive: [1] -0.009 | crizotinib 0.019 | [2] 0.072 | [3] -0.012 | duvelisib 0.041 | gandotinib -0.042 | tozasertib -0.025 | [4] 0.053 | doramapimod -0.036 | ispinesib 0.04 | bafetinib 0.008 | [5] 0.029 | nilotinib -0.002 | [6] -0.027 | dasatinib -0.057 | [7] 0.026 | [8] 0.017 | [9] -0.011 | tipifarnib -0.038 | mubritinib 0.01

Further records

TOR1AIP1 isoform 3 (UniProt Q5JTV8)
inactive: [1] 0.004 | crizotinib 0.052 | [2] -0.017 | [3] -0.043 | duvelisib 0.023 | gandotinib -0.011 | tozasertib -0.009 | [4] 0.011 | doramapimod -0.029 | ispinesib 0.089 | bafetinib -0.057 | [5] -0.001 | nilotinib -0.006 | [6] 0.018 | dasatinib 0.005 | [7] -0.035 | [8] 0.031 | [9] 0.01 | tipifarnib -0.018 | mubritinib 0

TPM4 isoform 2 (UniProt P67936)
inactive: [1] -0.088 | crizotinib 0.003 | [2] -0.034 | [3] 0.1 | duvelisib -0.122 | gandotinib -0.037 | tozasertib 0.032 | [4] -0.172 | doramapimod -0.057 | ispinesib -0.013 | bafetinib -0.08 | [5] -0.064 | nilotinib 0.02 | [6] -0.044 | dasatinib -0.052 | [7] 0.054 | [8] -0.022 | [9] -0.047 | tipifarnib -0.157 | mubritinib -0.006

TRMT13 (UniProt Q9NUP7)
inactive: [1] -0.039 | crizotinib 0.038 | [2] -0.045 | [3] -0.066 | duvelisib 0.028 | gandotinib -0.201 | tozasertib 0.03 | [4] 0.03 | doramapimod 0.015 | ispinesib 0.015 | bafetinib -0.056 | [5] -0.016 | nilotinib -0.06 | [6] 0.03 | dasatinib -0.051 | [7] 0.054 | [8] 0.01 | [9] 0.032 | tipifarnib 0.026 | mubritinib -0.004
